These are yes or no findings as the source states them, for the method shown. Binding seen in cells or lysates may run through a third protein. Some binding calls cover weakened binding; strength is not graded here.
Experiments:
[1] = biological target: SSTR2-11S (somatostatin receptor type 2 with the large NanoLuc subunit 11S at its C-terminus) (UniProt P30874); assay: split reporter; direct assay: GPCR-11S and 114-arrestin co-expressed in live HEK293 cells (transient transfection, MultiPrime plasmid or baculovirus); 10 min baseline, then 1 µM agonist (isoproterenol, DOTA-TOC, AMBA) or 485 nm light for rhodopsin; furimazine luminescence over time
[2] = biological target: B2AR-11S (β2-adrenergic receptor with the large NanoLuc subunit 11S at its C-terminus) (UniProt P07550); assay: as above
[3] = biological target: GRPR-11S (gastrin-releasing peptide receptor with the large NanoLuc subunit 11S at its C-terminus) (UniProt P30550); assay: as above
[4] = biological target: human rhodopsin with the large NanoLuc subunit 11S at its C-terminus (human) (UniProt P08100); assay: as above
[5] = biological target: SSTR2-11S (somatostatin receptor type 2 with the large NanoLuc subunit 11S at its C-terminus) (UniProt P30874); assay: split reporter; direct assay, baseline luminescence before agonist (inactive receptor); gene dose experiment, Job plot of baseline against the fraction of receptor plasmid; live HEK293 cells
[6] = biological target: GRPR-11S (gastrin-releasing peptide receptor with the large NanoLuc subunit 11S at its C-terminus) (UniProt P30550); assay: as above

Amino acid sequences for entries named in this document (tags omitted).
UniProt P30874: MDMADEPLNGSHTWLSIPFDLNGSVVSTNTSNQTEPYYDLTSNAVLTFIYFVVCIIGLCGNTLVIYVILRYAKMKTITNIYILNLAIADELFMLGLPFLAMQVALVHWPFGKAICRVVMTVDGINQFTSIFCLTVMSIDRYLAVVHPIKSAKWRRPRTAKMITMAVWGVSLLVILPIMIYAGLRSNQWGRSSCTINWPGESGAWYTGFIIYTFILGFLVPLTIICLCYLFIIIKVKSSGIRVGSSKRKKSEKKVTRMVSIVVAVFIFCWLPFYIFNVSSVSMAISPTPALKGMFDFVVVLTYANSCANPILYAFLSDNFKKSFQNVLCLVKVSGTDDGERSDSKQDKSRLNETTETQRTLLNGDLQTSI
UniProt P30550: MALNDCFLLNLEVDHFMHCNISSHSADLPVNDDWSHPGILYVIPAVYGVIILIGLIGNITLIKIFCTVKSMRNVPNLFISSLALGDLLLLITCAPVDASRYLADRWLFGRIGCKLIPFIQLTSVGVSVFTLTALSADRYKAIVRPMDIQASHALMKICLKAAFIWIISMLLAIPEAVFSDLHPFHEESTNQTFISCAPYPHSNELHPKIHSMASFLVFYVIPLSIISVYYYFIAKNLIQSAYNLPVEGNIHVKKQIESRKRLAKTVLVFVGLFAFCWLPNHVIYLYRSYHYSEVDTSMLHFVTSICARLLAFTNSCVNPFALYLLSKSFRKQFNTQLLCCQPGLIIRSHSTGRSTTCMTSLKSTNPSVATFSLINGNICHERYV
UniProt P08100: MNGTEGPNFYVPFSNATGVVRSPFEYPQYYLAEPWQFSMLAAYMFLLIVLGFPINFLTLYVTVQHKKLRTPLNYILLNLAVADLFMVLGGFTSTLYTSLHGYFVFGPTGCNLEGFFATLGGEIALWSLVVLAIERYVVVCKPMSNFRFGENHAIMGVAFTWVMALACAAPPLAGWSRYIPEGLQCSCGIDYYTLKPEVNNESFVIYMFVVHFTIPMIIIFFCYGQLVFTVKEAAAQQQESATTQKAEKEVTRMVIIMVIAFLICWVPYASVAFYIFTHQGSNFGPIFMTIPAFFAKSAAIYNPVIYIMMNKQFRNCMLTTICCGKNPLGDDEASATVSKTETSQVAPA
UniProt P10523: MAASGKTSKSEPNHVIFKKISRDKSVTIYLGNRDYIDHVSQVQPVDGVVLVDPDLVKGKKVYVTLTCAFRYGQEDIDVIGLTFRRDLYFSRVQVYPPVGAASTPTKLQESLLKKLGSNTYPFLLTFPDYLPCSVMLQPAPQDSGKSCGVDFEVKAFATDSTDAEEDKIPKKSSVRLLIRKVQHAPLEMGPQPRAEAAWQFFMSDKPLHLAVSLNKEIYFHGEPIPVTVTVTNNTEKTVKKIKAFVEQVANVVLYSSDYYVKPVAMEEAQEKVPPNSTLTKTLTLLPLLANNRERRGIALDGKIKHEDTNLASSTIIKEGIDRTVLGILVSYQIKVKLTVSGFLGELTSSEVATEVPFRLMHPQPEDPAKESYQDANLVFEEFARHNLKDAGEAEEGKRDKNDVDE
UniProt P49407: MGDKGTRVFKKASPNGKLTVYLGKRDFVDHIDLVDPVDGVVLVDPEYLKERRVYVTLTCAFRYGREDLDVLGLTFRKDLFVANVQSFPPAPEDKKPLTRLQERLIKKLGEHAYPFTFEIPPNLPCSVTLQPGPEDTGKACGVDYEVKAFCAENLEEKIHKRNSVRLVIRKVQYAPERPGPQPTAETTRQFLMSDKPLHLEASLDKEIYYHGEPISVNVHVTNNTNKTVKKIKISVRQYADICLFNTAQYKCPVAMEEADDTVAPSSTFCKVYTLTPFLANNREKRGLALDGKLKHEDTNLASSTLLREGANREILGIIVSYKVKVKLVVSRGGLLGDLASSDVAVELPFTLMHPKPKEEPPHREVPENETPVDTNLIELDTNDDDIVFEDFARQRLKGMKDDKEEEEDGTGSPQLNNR

binding [1] | binding [2] | binding [3] | binding [4] | binding [5] | binding [6] | Substance
binds | binds | binds | binds | – | – | 114-S-arrestin (S-arrestin with the small NanoLuc subunit 114 at its N-terminus) (from UniProt P10523 1-405)
binds | – | binds | binds | – | – | 114-β-arrestin-1 (β-arrestin-1 with the small NanoLuc subunit 114 at its N-terminus) (from UniProt P49407 1-418)
binds | – | binds | binds | binds weakly | binds weakly | 114-β-arrestin-2 (β-arrestin-2 with the small NanoLuc subunit 114 at its N-terminus) (from UniProt P32121 1-409)
